# In the supplement of paper PMC3334620:
# Over roughly 33,000 sequences, “E-score (-0.5 to 0.5)” has its median near -8e-05; the highest 2% begin near 0.23. Some of the results follow.
# Biological target: T1, Nrg2 (UniProt P38082)
# T1 sequence: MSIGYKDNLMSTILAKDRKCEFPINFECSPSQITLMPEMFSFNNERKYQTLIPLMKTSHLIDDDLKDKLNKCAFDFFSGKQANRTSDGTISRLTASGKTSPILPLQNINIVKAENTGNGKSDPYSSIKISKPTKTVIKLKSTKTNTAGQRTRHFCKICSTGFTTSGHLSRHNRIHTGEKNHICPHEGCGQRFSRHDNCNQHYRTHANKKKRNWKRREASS
# Assay: PBM E-score (8-mer binding enrichment) (E-score (-0.5 to 0.5)); higher = stronger / more preferred TF binding
# Conditions: protein concentration: 100 nM; construct: GST-full length
# Experimental: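 Universal 'all 10-mer' protein binding microarrays (Agilent AMADID 015681) probed with GST-tagged S. cerevisiae TFs (full-length or DBD) made by in vitro transcription/translation (PURExpress), about 100-200 nM. Bound TF was detected with fluorescent anti-GST. Each ungapped 8-mer (which stands for itself and its reverse complement) is scored by the PBM enrichment score (E-score), a modified Wilcoxon-Mann-Whitney statistic from -0.5 to +0.5, computed with the Universal PBM Analysis Suite. Scale: above 0.35 generally sequence-specific binding.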
row,Sequence,PBM E-score
1,AGGGGCAT,0.00378
2,AAAGTTAC,0.0473
3,CATTTGTA,0.123
4,CGGACCAC,-0.052
5,CGAACTAA,0.162
6,ACGGACTG,-0.104
7,CGCCTGCA,0.00663
8,GGAAATCC,-0.0565
9,GACGACGA,-0.0275
10,AAAAACCA,0.112
11,CATGTGAG,-0.131
12,GCGATAAC,-0.0744
13,CCGTATGC,0.0663
14,AACCTAAG,0.0645
15,CAGAAGGA,-0.204
16,GTCCATGA,-0.237
17,GCGCGACC,0.109
18,AACAGATG,-0.0815
19,TTCTTAAA,-0.21
20,CAGTTAAA,-0.0432
21,AGCCCTCG,-0.0772
22,TACCTAGA,-0.116
23,AAACAAAA,0.0254
24,CCCGCAAA,0.188
25,ACAAAAAA,0.206

row,Sequence,PBM E-score
1,AACTAGGG,0.122
2,CTCGCCTA,0.162
3,CACTGTCA,0.101
4,CGCGAGAA,0.00518
5,CAGGAAAA,0.205
6,ATCTCATC,0.0993
7,AGCCTCAT,-0.198
8,AAGGACTT,-0.301
9,CATGGTTA,0.0738
10,AAACTCTC,0.0414
11,CGAACCCA,-0.0033
12,AGTGTGAG,-0.0773
13,CTGTACGA,0.11
14,CGCCACCG,-0.0906
15,CAAATCCA,0.106
16,GTTTAGGA,-0.334
17,ATTGGCGA,0.0484
18,CTTGGATA,0.0205
19,ACCAGTAG,-0.179
20,AAGGGTCT,0.273
21,AATCACCT,0.0282
22,AGAGCGGA,0.0179
23,AGGACGTC,-0.169
24,AGCAGAGC,-0.15
25,AGCATCTC,0.026

row,Sequence,PBM E-score
1,CCTCTAAA,-0.139
2,ATAAAGGG,0.0152
3,GCCTTGCA,0.0107
4,ACAATGCC,0.0263
5,GCACAAAA,0.207
6,GACTGTAC,-0.0625
7,GTCCCTAA,0.106
8,CTCGCAAA,-0.0853
9,CACCATCG,-0.222
10,ACCCTCTC,-0.0636
11,ACGGTCAA,0.00512
12,CCGATTCG,0.207
13,CCTGGGAA,0.147
14,ATAACCCG,-0.178
15,CATTACGA,-0.1
16,AACGATAA,-0.098
17,AAAGGATC,-0.0716
18,CGTCATCC,0.0132
19,CCTGATCA,-0.0406
20,AAAGATAT,0.177
21,ACCTAATC,0.179
22,TCGCAGCA,-0.0431
23,CACGCCCG,-0.0347
24,CCAGATTC,-0.193
25,ATGTGGAG,-0.0678

row,Sequence,PBM E-score
1,GAATGCCC,0.00027
2,GAAACATC,-0.181
3,ATTGCGCG,0.134
4,ATCATTTA,0.0968
5,GGAAGCAA,-0.0162
6,GACACGGC,-0.00358
7,CATAAGGC,0.0272
8,AATACAGT,0.0623
9,GACCTGCA,-0.164
10,ACATACAA,0.0716
11,AAAGGGTT,0.0608
12,CGAACGTC,-0.236
13,AAGTTTAA,-0.201
14,CTCACGTA,-0.0962
15,CCCCAGCG,-0.114
16,CACTCGGG,-0.0309
17,TACCCCAA,0.247
18,AAACCCTG,0.318
19,CATACAAA,0.146
20,AACGAGAC,-0.0169
21,AAAATTAG,0.137
22,AGGTGCTG,-0.104
23,CGACAATA,0.235
24,AGATTGCC,0.0069
25,CATCCGTC,0.0784

row,Sequence,PBM E-score
1,GTGATACA,0.103
2,TCGCATAA,0.0669
3,ATTAGCCC,-0.0455
4,ATGCCTGA,-0.126
5,GTCCTTCA,0.0475
6,CTCCCAAG,-0.127
7,ACGACCGG,-0.144
8,AAACTGAA,-0.00473
9,ATTATGTG,0.182
10,AAGGGTTC,0.248
11,ACTTATTG,0.0252
12,ACTTCGCC,0.226
13,ATGTCGTC,0.00888
14,CCACGATA,0.0908
15,CCTTTACA,-0.126
16,GGGCCTAA,-0.0972
17,AAGGATAC,-0.00642
18,CGAGTTCA,0.0337
19,ACCTCGTG,0.0762
20,CTCTAATA,0.0885
21,AACAGCCA,0.0911
22,AATGACCT,-0.126
23,ATTGGAAC,0.0256
24,CTCTGTTA,-0.052
25,CCATGGAA,0.0473

row,Sequence,PBM E-score
1,GTGTGGAA,-0.0645
2,GAAAGGAA,0.0899
3,AGGTGATG,-0.158
4,TAGTATCA,0.283
5,CTACATCA,0.0792
6,GCACTGTA,0.15
7,CTGACCAG,-0.0108
8,AGCGAGAG,0.0268
9,ATAGACGG,0.0402
10,AGTAGAGG,-0.151
11,GCCACGAC,0.0517
12,AGTTACGC,-0.157
13,TAACTGTA,-0.0145
14,ATATCTGC,0.0558
15,ACGTCCCT,0.117
16,ACGATAAA,-0.168
17,GCCTTGGA,0.0174
18,AACTCTCT,-0.028
19,ACATGTAA,0.0879
20,GTTGACTA,-0.0973
21,AAAGTAGG,0.112
22,AGAGGCTG,-0.272
23,TAGGCCCA,-0.175
24,CTCAAACA,0.113
25,ACTGCCCG,0.00041

# 31 successive entries out of the list so far, for reference:
row,Sequence,PBM E-score
17,AAGGATAC,-0.00642
18,CGAGTTCA,0.0337
19,ACCTCGTG,0.0762
20,CTCTAATA,0.0885
21,AACAGCCA,0.0911
22,AATGACCT,-0.126
23,ATTGGAAC,0.0256
24,CTCTGTTA,-0.052
25,CCATGGAA,0.0473
1,GTGTGGAA,-0.0645
2,GAAAGGAA,0.0899
3,AGGTGATG,-0.158
4,TAGTATCA,0.283
5,CTACATCA,0.0792
6,GCACTGTA,0.15
7,CTGACCAG,-0.0108
8,AGCGAGAG,0.0268
9,ATAGACGG,0.0402
10,AGTAGAGG,-0.151
11,GCCACGAC,0.0517
12,AGTTACGC,-0.157
13,TAACTGTA,-0.0145
14,ATATCTGC,0.0558
15,ACGTCCCT,0.117
16,ACGATAAA,-0.168
17,GCCTTGGA,0.0174
18,AACTCTCT,-0.028
19,ACATGTAA,0.0879
20,GTTGACTA,-0.0973
21,AAAGTAGG,0.112
22,AGAGGCTG,-0.272

# Later entries:

row,Sequence,PBM E-score
1,AGCGCTTA,0.131
2,ATGTGAAC,0.0728
3,ACGACAAC,0.196
4,TAAATTAA,0.139
5,CCTTGATA,0.117
6,ATTGCACC,0.0876
7,GGCGCTTA,-0.124
8,ATCTAGCA,0.216
9,ATATTAAT,0.286
10,CACCATTA,-0.0449
11,ACTGCTTA,-0.176
12,ATATGACG,0.0293
13,CATCTCGG,0.085
14,AGAGCCAG,-0.195
15,AAATCGTC,0.00585
16,ACCACAGA,0.0044
17,AACGCTTC,-0.0033
18,AACCACCA,0.00348
19,ACCGCGGG,0.171
20,CTAAAGAA,0.01
21,AGCCGCAT,0.0608
22,ATGAAAAG,0.0798
